In the supplement of paper PMC5949888:
± gives the standard deviation of the averaged measurements. Most values lie at the floor of the assay. Slopes are relative: functional sequences can read slightly below zero.

Tested on: Saccharomyces cerevisiae PS128 hsf1 delta, HSF1(1-493) fusion
Experiment: growth estimate (transactivation domain function in HSF1 fusion, heat-shock survival) (a.u. (slope of normalised read count over time)); higher = stronger growth at 37°C, i.e. more transactivation activity
Conditions: library: random library

Substance	growth estimate
ASRRS	< -0.25
GIKASDGSCEELLNLSFRDP	< -0.25
GTASS	< -0.25
QCGSGDVRQTVDKPILRK	< -0.25
QVSKPPTVPRSDSSLCSFTR	< -0.25
LVVLAGGPCLAGKDLT	< -0.25
AFVPRNSFFERKTLNHLDSP	-0.241
HGARSAVRRGLYHFLSKRDF	< -0.25
SEGQGLRAVPVSRPGWPGPV	< -0.25
KFVAGLSNTVFSPPSLAVPS	< -0.25
ADCAWAYGKNFNVSPKVLTG	< -0.25
MECGADPSSC	< -0.25
LERG	< -0.25
PTQS	< -0.25
WGWQSFADRASHASALVNRH	< -0.25
NQQCLCLSCISWGPRAAPNQ	< -0.25
AKSQKLSASVDTGQGRL	< -0.25
LHHPVGASVHGPYVPGVVLH	< -0.25
LSYYPEVHAGSWTPISIRNY	< -0.25
ALKCVGSCFPRLLHLNKGLG	< -0.25
FWVTRIKGKVYVIKGGTVYA	< -0.25
RAIAASRGTRKAI	< -0.25
RHLVSPGERSGSNRDV	< -0.25
TVKVRTTQCTGRTRDLIPCR	< -0.25
GTVRGY	< -0.25

Substance	growth estimate
ARQYATVGHLYMTTILIHVA	< -0.25
NSVRRRKVHGDDWVSTLQLG	< -0.25
MLQERRT	-0.246
VPVIGPCRRLVRRGPKFYR	< -0.25
TACGQESSALFARSRQKGLS	< -0.25
AFHAT	< -0.25
VVCSRSTLCGYRLLGPQI	< -0.25
ARVLRR	< -0.25
VTDGKLSPSTFPKRVKPIRG	< -0.25
LQRPI	< -0.25
GFRPSFLLM	< -0.25
VVSCNRGIQCGSLNDANTRA	< -0.25
LRNQRSCEGTVQARCREVSH	< -0.25
VDRSTSTQNVVSMFSSHL	< -0.25
AYICDASSLVLEIHAP	< -0.25
CPLFYLRRVPSLGAYSSSRG	< -0.25
ILHFLSRISCALLVSYIPGQ	< -0.25
GRGAAALEFNNDAPQSAWTV	< -0.25
QTNCAFHGRPHYEFATPPGT	< -0.25
SFSRVDRSLHLSAQACSAPP	< -0.25
VGLQF	< -0.25
EWASSRQLGFCRCASCRGVC	-0.199
QSRYPC	< -0.25
CTTLRGWVLAVTETPTTAMI	< -0.25
AIGGLRPPISIQTGLRDSLL	< -0.25

Substance	growth estimate
AGIRTHWEIKFR	< -0.25
VVIKSVAFSFFTNVSLLLAL	-0.246
CARRTNLGVRNWLRYLLKKG	< -0.25
VRVD	< -0.25
SCYPSPSWLLSVPTSQLGSA	< -0.25
SIRG	< -0.25
QNLPVIVGANCGVHRKMYAH	-0.245
SVDRNSWKY	< -0.25
LGLHKSSSVEDKIVLRKCTS	< -0.25
TLFLAKIAARPSA	< -0.25
SSGLRLL	< -0.25
QSYTD	< -0.25
NFSIMPREQDPTAAYFRGTR	< -0.25
SSVWDLRAVQLLSIDAQVKR	< -0.25
GLCRYAIASRLLYTMKHQDG	< -0.25
PWNPNARLYGQPEVPVFTAS	< -0.25
RCSGVFKVSRALWSPVRSMC	< -0.25
ETSEWRIHTHFLIGRGNKHC	< -0.25
RGYGFLLSLAPAALVPWTIL	< -0.25
CRWSITFETVQLVTGPGFVE	< -0.25
SWLYTCILMFLDTYSRMRDD	< -0.25
HFV	< -0.25
PLMSLPQDCSWCGAGTEA	< -0.25
DRGAVQGKRTPARMDFPIEP	< -0.25
IQL	-0.198 ± 0.074

Substance	growth estimate
GVLSIQLIIL	< -0.25
QTAIIHAGMTACFGALEG	< -0.25
HKSPITLGTRSSNESLACCP	< -0.25
FPATSYTAERK	< -0.25
NSLAKMSTRA	< -0.25
NPYGWVAP	< -0.25
KGRAECGN	< -0.25
ISDGITR	< -0.25
HCAVMNFQGTLVRVGEIAHP	< -0.25
TYSRSTRISALSTIFQP	< -0.25
WDIWGIVR	< -0.25
GEIRPAIAHS	< -0.25
EDRGKNTS	< -0.25
GHQRPDPVPQGITKHSRTSP	< -0.25
ELGRGAWPGSRRGRFRYVG	< -0.25
CCNGSRE	< -0.25
TTLRFRPSELREHQGQGCAG	< -0.25
TTRPWDLSTS	< -0.25
KNLVLYTRWDCCDGNGLHVQ	< -0.25
SVPKCPEALTRVQRTRVSSA	< -0.25
YRLYNFLSKLWPQLAYTWSN	-0.232
RRCGRF	< -0.25
PLASSQKTWGMETGRIHVTW	< -0.25
RFRVCSISGVHLAVHGCRID	-0.174
EVTGKINTGVQTPTGSRGGN	< -0.25

An excerpt of these results, bar-delimited.
Substance | growth estimate
SSVWDLRAVQLLSIDAQVKR | < -0.25
GLCRYAIASRLLYTMKHQDG | < -0.25
PWNPNARLYGQPEVPVFTAS | < -0.25
RCSGVFKVSRALWSPVRSMC | < -0.25
ETSEWRIHTHFLIGRGNKHC | < -0.25
RGYGFLLSLAPAALVPWTIL | < -0.25
CRWSITFETVQLVTGPGFVE | < -0.25
SWLYTCILMFLDTYSRMRDD | < -0.25
HFV | < -0.25
PLMSLPQDCSWCGAGTEA | < -0.25
DRGAVQGKRTPARMDFPIEP | < -0.25
IQL | -0.198 ± 0.074
GVLSIQLIIL | < -0.25
QTAIIHAGMTACFGALEG | < -0.25
HKSPITLGTRSSNESLACCP | < -0.25
FPATSYTAERK | < -0.25
NSLAKMSTRA | < -0.25
NPYGWVAP | < -0.25
KGRAECGN | < -0.25
ISDGITR | < -0.25
HCAVMNFQGTLVRVGEIAHP | < -0.25
TYSRSTRISALSTIFQP | < -0.25
WDIWGIVR | < -0.25
GEIRPAIAHS | < -0.25
EDRGKNTS | < -0.25
GHQRPDPVPQGITKHSRTSP | < -0.25
ELGRGAWPGSRRGRFRYVG | < -0.25
CCNGSRE | < -0.25
TTLRFRPSELREHQGQGCAG | < -0.25
TTRPWDLSTS | < -0.25
KNLVLYTRWDCCDGNGLHVQ | < -0.25
SVPKCPEALTRVQRTRVSSA | < -0.25
YRLYNFLSKLWPQLAYTWSN | -0.232
RRCGRF | < -0.25
PLASSQKTWGMETGRIHVTW | < -0.25
RFRVCSISGVHLAVHGCRID | -0.174

Next part:

Substance	growth estimate
TLHRGCTIMSRGY	< -0.25
SPAR	< -0.25
STVWTRTCADFMRRRRSGAG	< -0.25
SSYTSYKDYR	< -0.25
QCYVEGALGSDALFMESSMN	-0.082
ARRIIVPVSATATANTSCAD	< -0.25
RGYLEH	< -0.25
WGTKHVSFAGLLAPMQSAGN	< -0.25
TITCRESGFLSGATSTVIRS	< -0.25
YGHVL	< -0.25
RLAHFPIERPRGRIIDTLKA	< -0.25
SGKNIKGQMYDRIMYPNYLS	< -0.25
CGEHEWVWMDNRCPSPRR	< -0.25
FRYSLVRCRY	< -0.25
WSLRDTGTLFPPRGIPVRGG	< -0.25
GYWLCPRNLAW	< -0.25
VKGEYQSRSQTNPEYKSYHS	< -0.25
YSRVC	< -0.25
ALRHFMISYNTILKLFRR	< -0.25
GSVTHHVSRKATWIREAFMR	< -0.25
GSFGEYTCLVGISQNYLYQS	< -0.25
VIFAGPSGPIQ	< -0.25
YNPPWRCAQILRVWRV	< -0.25
YKVSCSRIC	< -0.25
IGGRPVCVRCREGCGSG	< -0.25

Substance	growth estimate
MPVTSPIVFG	< -0.25
PRRWIGMASVLI	< -0.25
VALIEQVYAY	< -0.25
NWAWGAS	< -0.25
CSGKWLAVRRPLGNCT	< -0.25
GTGRQFIRCLMSVE	< -0.25
GCCGLWAMWGTGLRGWG	< -0.25
YILLEVCCISKQVQHVYMVQ	< -0.25
SDRTR	< -0.25
GPGVQGPGSAL	-0.172
YSRDWRD	< -0.25
NLVAAFMDRYGEWKGHSPME	-0.246
ITVPVGVRLWDAEAVVKKM	< -0.25
GFETLIEGNNDTNGLLKGPS	< -0.25
PVGRLRSFT	-0.243
RIGVSHAPRSSIVGRMRSMG	< -0.25
GTRRF	< -0.25
APRGRLLSESAMSRLEQDHA	< -0.25
WNFPDRCYNPPKPI	< -0.25
APTV	< -0.25
AQFGILSAVHGPTTKERRSC	< -0.25
QSRVLSSGEAPCVGDNLRGI	< -0.25
STTT	< -0.25
LDETLVGPKT	< -0.25
EEVGCEIYWRCDA	< -0.25

Substance	growth estimate
SGSDRASGSCSSEPLGSRKG	< -0.25
ARWSESYTWSALRTLLLGGA	< -0.25
RPRPGILGRHSASEWREDTP	< -0.25
IIGV	< -0.25
LVNPLFRCVVGSLNTSRIMG	< -0.25
SIRSTVFSSVRDGHGVEQSR	< -0.25
YEEGCCRIPRRREFRVFRCR	< -0.25
NELYVGASPRKRNDKGGEPP	< -0.25
LSRRCSAWMAYSLPFSSFGG	< -0.25
ENCKDDGK	< -0.25
ISEM	< -0.25
NDRN	< -0.25
GRSQRVNS	< -0.25
MSLKGSPMKWGVIMHNRIPI	< -0.25
IPFLIDGTRSSDCAEKPMRI	< -0.25
LVLLTHARLILRPATSGYSE	< -0.25
VHLGRLRTCRGICGCRADLS	< -0.25
VRVPQSFRARISRPRNTHSH	< -0.25
IISR	< -0.25
FCSSWPSFRWTDFGNLLISL	< -0.25
CNSILYPTRRSQ	< -0.25
SASSCRGPADALAGEGNDCF	< -0.25
RVLLLPRQLNVGYSVC	< -0.25
CVTRLVLANWFDVLNPLKYS	< -0.25
PIQVIKRAC	< -0.25

Substance	growth estimate
KGMYYFSVMPG	< -0.25
VLLGGLIPREAKEDEILSEK	< -0.25
NPDVAINGRY	< -0.25
ESPLSVACVRHASVRLRPRA	< -0.25
QTGSVTRQMMLLQTVNALGW	-0.243
FEDPARGNRDSAVHYLFRWE	-0.247
VCPTG	< -0.25
GYYDQVDQGALSGIRCRATT	< -0.25
RVGNVGDGATGGV	< -0.25
PVQDGSMFWSKCF	< -0.25
VEREASRS	< -0.25
GAARVWKS	< -0.25
LYRLEVY	< -0.25
RPKIVRILAESRWRMIAFSK	< -0.25
NESGTARD	< -0.25
DSYWKCSPHGRLFFFSPPRA	-0.131
VAQRGGRPPMLHNIARERMR	< -0.25
IDYQPKVVTME	< -0.25
GPGSARNRCGRIQKGR	< -0.25
GSQTKSVYLNQEDRSSANGS	< -0.25
GGPFCGLLPPSQRDYESPIF	< -0.25
GTDESGGKV	< -0.25
